No constants are given. Whether binding was seen depends on the method and setting. In cells and extracts the contact can be indirect. Some results given as binding are weak or reduced against the parent protein; the word gives no strength.
Target: autophagy-related gene 5 (ATG5) protein (human (endogenous in NHTE cells)) (UniProt Q9H1Y0)
Test: co-IP; endogenous ATG5 precipitated with mouse anti-human ATG5 antibody (clone ATG5-18) from pre-cleared NHTE cell lysates (50 mM Tris-HCl pH 8.0, 120 mM NaCl, 1% NP-40, 4 mM EDTA), 4°C, 2 h; blots of RIG-I, IPS-1 and ATG5; cells treated with or without 100 mM trehalose for 48 h and with HRV-16 or PBS for 6 h

The chains behind the UniProt entries cited, without tags or fusion partners.
UniProt Q9H1Y0: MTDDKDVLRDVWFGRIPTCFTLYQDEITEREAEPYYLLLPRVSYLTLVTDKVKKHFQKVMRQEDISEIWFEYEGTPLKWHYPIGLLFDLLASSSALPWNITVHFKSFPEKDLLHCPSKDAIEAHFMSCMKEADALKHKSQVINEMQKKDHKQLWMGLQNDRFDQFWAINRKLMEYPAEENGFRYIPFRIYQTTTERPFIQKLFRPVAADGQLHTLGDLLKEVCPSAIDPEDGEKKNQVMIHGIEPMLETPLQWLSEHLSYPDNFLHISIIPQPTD
UniProt Q7Z434: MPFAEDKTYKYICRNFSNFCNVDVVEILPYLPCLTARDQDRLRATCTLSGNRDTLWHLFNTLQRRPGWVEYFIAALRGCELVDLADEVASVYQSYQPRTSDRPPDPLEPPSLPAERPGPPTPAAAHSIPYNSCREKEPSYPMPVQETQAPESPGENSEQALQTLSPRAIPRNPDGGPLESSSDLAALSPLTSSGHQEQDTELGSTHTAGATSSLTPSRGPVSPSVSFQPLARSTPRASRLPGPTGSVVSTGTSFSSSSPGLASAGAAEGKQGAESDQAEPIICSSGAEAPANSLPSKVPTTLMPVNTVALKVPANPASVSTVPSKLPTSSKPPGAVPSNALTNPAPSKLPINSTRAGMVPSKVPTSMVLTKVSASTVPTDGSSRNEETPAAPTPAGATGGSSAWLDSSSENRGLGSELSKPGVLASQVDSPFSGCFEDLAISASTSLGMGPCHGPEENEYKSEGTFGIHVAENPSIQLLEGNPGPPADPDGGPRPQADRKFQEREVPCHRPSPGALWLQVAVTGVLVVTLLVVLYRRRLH

binding	Molecule
binds	IFN-β promoter stimulator 1 (IPS-1) (from UniProt Q7Z434 1-540)
binds	retinoic acid-inducible gene I (RIG-I) (protein, UniProt O95786 1-925) MTTEQRRSLQAFQDYIRKTLDPTYILSYMAPWFREEEVQYIQAEKNNKGPMEAATLFLKFLLELQEEGWFRGFLDALDHAGYSGLYEAIESWDFKKIEKLEEYRLLLKRLQPEFKTRIIPTDIISDLSECLINQECEEILQICSTKGMMAGAEKLVECLLRSDKENWPKTLKLALEKERNKFSELWIVEKGIKDVETEDLEDKMETSDIQIFYQEDPECQNLSENSCPPSEVSDTNLYSPFKPRNYQLELALPAMKGKNTIICAPTGCGKTFVSLLICEHHLKKFPQGQKGKVVFFANQIPVYEQQKSVFSKYFERHGYRVTGISGATAENVPVEQIVENNDIIILTPQILVNNLKKGTIPSLSIFTLMIFDECHNTSKQHPYNMIMFNYLDQKLGGSSGPLPQVIGLTASVGVGDAKNTDEALDYICKLCASLDASVIATVKHNLEELEQVVYKPQKFFRKVESRISDKFKYIIAQLMRDTESLAKRICKDLENLSQIQNREFGTQKYEQWIVTVQKACMVFQMPDKDEESRICKALFLYTSHLRKYNDALIISEHARMKDALDYLKDFFSNVRAAGFDEIEQDLTQRFEEKLQELESVSRDPSNENPKLEDLCFILQEEYHLNPETITILFVKTRALVDALKNWIEGNPKLSFLKPGILTGRGKTNQNTGMTLPAQKCILDAFKASGDHNILIATSVADEGIDIAQCNLVILYEYVGNVIKMIQTRGRGRARGSKCFLLTSNAGVIEKEQINMYKEKMMNDSILRLQTWDEAVFREKILHIQTHEKFIRDSQEKPKPVPDKENKKLLCRKCKALACYTADVRVIEECHYTVLGDAFKECFVSRPHPKPKQFSSFEKRAKIFCARQNCSHDWGIHVKYKTFEIPVIKIESFVVEDIATGVQTLYSKWKDFHFEKIPFDPAEMSK

Reference: paper PMC4400043
